In PubChem BioAssay AID493014 (National Center for Advancing Translational Sciences (NCATS), 2011):
The other results are listed elsewhere or left out. These are further read-outs of the screen, such as a control signal, another cell line or another target. No call is given for them. Compounds called inactive in the main read-out are mostly missing here. Potencies come from curve fits of mixed quality, noted in brackets.

Assay: qHTS Assay to Find Inhibitors of Chronic Active B-Cell Receptor Signaling
Settings: ABC-DLBCL IkBa-CBG/CBR reporter, luminescence ratio (green luciferase fused to IkBa over red control in TMD8 lymphoma cells), 4 h
How it was run: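 Compounds up to 46 uM were incubated four hours with TMD8 cells whose green CBG68 luciferase is fused to IkappaBalpha; red CBR luminescence normalised the signal, and concentration-effect curves were fitted to fusion, red and ratio data.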

[1] = measured here: CBR red luminescence, cell number
[2] = measured here: IkBa-CBG green luminescence

| SMILES | AC50 [1] | AC50 [2] |
| --- | --- | --- |
| CN(Cc1nc(C(c2ccccc2)c2ccccc2)no1)CC1COCCO1 (stereo unspecified) | 6.31 µM [falling, partial curve] | – |
| Cc1ccc(S(=O)(=O)Nc2ccccc2C(=O)OC(C)C(=O)Nc2ccc3ccccc3c2)cc1[N+](=O)[O-] (stereo unspecified) | 6.51 µM [rising, partial curve, poor fit] | – |
| CCCOc1ccc(CSC2=NCCN2)cc1[N+](=O)[O-] | 35.5 µM [falling, single point] | – |
| O=C(Nc1ccccc1)Nc1ccc(Br)cc1F | 16.4 µM [falling, single point] | – |
| O=C(CSc1nc2ccccc2nc1N1CCCC1)Nc1ccc(Cl)cc1 | 5.01 µM [falling, partial curve, poor fit] | – |
| c1ccc(C2=NN(c3ccccc3)CC2)cc1 | 1.41 µM [rising, full curve] | – |
| Cc1ccc2c(c1)C(=O)N1[C@H]3c4cc(C)ccc4OC[C@@H]3[C@H](c3ccccc3)[C@]1(C)C(=O)N2 | 18.4 µM [falling, single point] | – |
| O=c1[nH]c(Cc2ccc(Cl)cc2)nc2ccccc12 | 15.8 µM [rising, partial curve, poor fit] | – |
| Cc1csc(N(C(=O)c2cccc(S(=O)(=O)N3CCCC3)c2)c2ccccc2)n1 | 20.6 µM [falling, single point] | – |
| O=C(Cc1ccccc1)N1CCN=C1SCc1ccc([N+](=O)[O-])cc1 | 29.1 µM [falling, single point] | – |
| CC(C)Sc1nc2sccc2c(=O)n1-c1ccccc1 | 12.6 µM [rising, partial curve] | – |
| O=C(Nc1ccc(Cl)cc1)OCc1cn(-c2ccc(Cl)cc2)nn1 | 3.16 µM [rising, partial curve, poor fit] | – |
| CC(C)c1cc(C(N)=O)c(NC(=O)c2cccc(COc3ccc(Cl)cc3)c2)s1 | 13 µM [falling, single point] | – |
| CCOC(=O)c1csc(NC(=O)c2cc(-c3ccccn3)nc3ccccc23)n1 | 23.1 µM [rising, single point] | – |
| Cc1ccc(C)c(N(C(=O)Cn2nnc3ccccc32)C(C(=O)NCc2ccco2)c2ccncc2)c1 (stereo unspecified) | 0.146 µM [falling, full curve, poor fit] | – |
| CC(=O)Oc1cccc(N2C(=O)CC(Nc3ccc(N4CCOCC4)cc3)C2=O)c1 (stereo unspecified) | 14.6 µM [falling, partial curve] | – |
| N#Cc1cccc(S(=O)(=O)N2CCN(c3ccnc4cc(Cl)ccc34)CC2)c1 | 15.8 µM [falling, single point] | – |
| O=C(NCCN1CCOCC1)c1cc2sccc2n1Cc1ccc(Cl)cc1 | 14.6 µM [rising, partial curve, poor fit] | – |
| O=C(/C=C\c1ccccc1)NCC(=O)N/N=C/c1ccc(O)cc1O | 3.98 µM [rising, single point] | – |
| Cc1ccc2cc(-c3noc(C(C)(C)C)n3)c(=O)[nH]c2c1 | 2 µM [rising, full curve, poor fit] | – |
| O=C(CC1N=C2c3ccccc3N=C(SCC(=O)Nc3ccc(F)cc3)N2C1=O)NCc1ccc2c(c1)OCO2 (stereo unspecified) | 0.708 µM [falling, full curve, poor fit] | – |

| SMILES | AC50 [1] | AC50 [2] |
| --- | --- | --- |
| O=C(CN1CCN(c2cccc(Cl)c2)CC1)NC1CCCc2ccccc21 (stereo unspecified) | 35.5 µM [falling, single point] | – |
| O=C(COc1ccc2c(-c3ccccc3)cc(=O)oc2c1)N[C@H](Cc1c[nH]c2ccccc12)C(=O)O | 2.82 µM [falling, full curve, poor fit] | – |
| Cc1ccc(S(=O)(=O)CC(=O)c2ccccc2)cc1 | 11.2 µM [rising, partial curve, poor fit] | – |
| N/C(Cc1ccc(Cl)cc1Cl)=N\OC(=O)Cc1cccs1 | 20.6 µM [rising, partial curve, poor fit] | – |
| CN(Cc1ccccc1)c1nc2c(c(=O)[nH]c(=O)n2C)n1Cc1ccccc1Cl | 3.66 µM [falling, single point] | 6.51 µM [rising, single point] |
| O=C1N=c2ccccc2=C1c1sc(=S)n(NC(=O)c2cccc(O)c2)c1O | 12.6 µM [falling, partial curve, poor fit] | – |
| Cc1ccc(NC(=O)COC(=O)c2ccc(NC(=O)CC#N)cc2)cc1S(=O)(=O)N1CCOCC1 | 20.6 µM [falling, single point] | – |
| Cc1cc(Nc2ccccc2)nc2cc(O)ccc12 | 9.2 µM [rising, partial curve] | 29.1 µM [falling, single point] |
| CC(C)N(NC(=O)c1cccc2ccccc12)C(C)C | 14.1 µM [rising, single point] | – |
| CCOc1ccc(NC(=O)CN(C)S(=O)(=O)c2cccs2)cc1 | 20.6 µM [falling, partial curve] | – |
| O=C(N/N=C/c1cccs1)c1ccc2nc[nH]c2c1 | 35.5 µM [falling, single point] | – |
| COC(=O)CCSc1cc(NCCOC(C)=O)c([N+](=O)[O-])c2nonc12 | 23.1 µM [falling, single point] | – |
| O=C(COc1ccccc1)N1N=C(c2cccnc2)CC1(O)C(F)(F)F (stereo unspecified) | 10.3 µM [rising, partial curve, poor fit] | – |
| CCn1c(C(=O)O)c(S(=O)(=O)c2ccc(Cl)cc2)c2ccccc21 | 8.91 µM [rising, partial curve, poor fit] | – |
| CC1CN(C(=O)CCC(=O)NC(C)c2ccccc2)c2cc(Cl)ccc2O1 (stereo unspecified) | 8.91 µM [falling, partial curve] | – |
| COc1cccc(-n2nnnc2SCC(=O)Nc2ccc(C(C)=O)cc2)c1 | 23.1 µM [rising, single point] | – |
| CNCC[C@H](Oc1cccc2ccccc12)c1cccs1 | 22.4 µM [falling, partial curve, poor fit] | – |
| CC1CCCN(c2ncnc3c2cnn3-c2ccccc2)C1 (stereo unspecified) | 35.5 µM [falling, single point] | – |
| N#Cc1cccc(NC(=O)CN2CCCCCC2)c1 | 6.31 µM [rising, single point] | – |
| Cc1ccc(-c2cn(-c3ccccc3)c(=S)[nH]2)cc1C | 20 µM [falling, partial curve] | – |
| CCn1c(=O)n(CCOC)c(=O)c2c3c(sc21)CCCC3 | 0.517 µM [falling, full curve, poor fit] | – |

| SMILES | AC50 [1] | AC50 [2] |
| --- | --- | --- |
| COc1ccc2[nH]c(=O)c(CN(Cc3cccnc3)C(=O)Nc3ccccc3)cc2c1 | 12.6 µM [falling, partial curve] | – |
| COc1ccc(CCNC(=O)C2c3ccccc3C(=O)N2CCC(C)C)cc1OC (stereo unspecified) | 2.82 µM [rising, full curve, poor fit] | – |
| O=C(CN1CCC(C(O)(c2ccccc2)c2ccccc2)CC1)Nc1ccccc1 | 15.8 µM [falling, single point] | – |
| C=CCN(CC=C)C(=O)c1ccc(OC2CCN(S(=O)(=O)N(C)C)CC2)cc1 | 1.58 µM [rising, partial curve] | – |
| COC(=O)[C@H](Cc1ccccc1)NC(=O)Nc1ccc(C)cc1 | 4.11 µM [rising, full curve, poor fit] | – |
| CC1(C)CC(=O)C(C=Nc2ccccc2)=C(O)C1 | 1.26 µM [rising, full curve, poor fit] | 15.8 µM [falling, partial curve, poor fit] |
| C=CCc1cc(/C=C2/NC(=O)N(CC)C2=O)cc(OCC)c1OCc1ccc(C(=O)O)cc1 | 29.1 µM [falling, single point] | – |
| COc1ccc(-c2cc(C3CCN(C(=O)OC(C)(C)C)CC3)[nH]n2)cc1 | 8.91 µM [falling, partial curve, poor fit] | – |
| O=C(Nc1nnc(SCc2ccccc2Cl)s1)c1cccc([N+](=O)[O-])c1 | 32.6 µM [falling, single point] | – |
| Cc1c2c(nc3ccccc13)CC(C)(C)CC2=O | 25.1 µM [rising, single point] | – |
| COc1ccc(C2(C(=O)NC(C)C)CCCC2)cc1OC | 0.259 µM [rising, full curve, poor fit] | – |
| COc1ccc(Cl)cc1NC(=O)CN(C)Cc1cccs1 | 5.01 µM [rising, full curve] | – |
| C=CCN1C(=O)C2(OCCCO2)c2cc(CCCC)ccc21 | 22.4 µM [rising, single point] | – |
| Cc1ccc(O)c(NC(=O)c2cc(-c3cccs3)on2)c1 | 15.8 µM [falling, partial curve, poor fit] | – |
| CC(C)N(C(C)C)S(=O)(=O)c1ccc(N2CCc3ccccc3C2)nc1 | 12.6 µM [falling, partial curve, poor fit] | – |
| Nc1c(C(=O)NC2CCCCC2)c2nc3ccccc3nc2n1/N=C/c1ccco1 | 22.4 µM [falling, single point] | – |
| O=C(Nc1ccccc1C(=O)NCc1cccnc1)c1cccc([N+](=O)[O-])c1 | 15.8 µM [rising, partial curve, poor fit] | – |
| COc1ccccc1-n1c(=O)oc2ccc(Cl)cc2c1=O | 6.51 µM [falling, partial curve, poor fit] | – |
| CCC1=NN(C(=O)Cc2ccc(OC)c(OC)c2)C(O)(C(F)(F)F)C1 (stereo unspecified) | 18.4 µM [rising, single point] | – |
| O=C(O)/C(=C\c1ccc(-c2ccccc2[N+](=O)[O-])o1)c1ccccc1 | 10 µM [falling, partial curve] | – |
| Cc1onc(-c2c(Cl)cccc2Cl)c1C(=O)c1c[nH]c(C(=O)NC2CC2)c1 | 5.8 µM [rising, full curve, poor fit] | – |

Complete entries as entered above. Order of values: AC50 [1]	AC50 [2]
COC(=O)[C@H](Cc1ccccc1)NC(=O)Nc1ccc(C)cc1 as listed: 4.11 µM [rising, full curve, poor fit]	–
COc1ccccc1-n1c(=O)oc2ccc(Cl)cc2c1=O as listed: 6.51 µM [falling, partial curve, poor fit]	–
O=C(CN1CCC(C(O)(c2ccccc2)c2ccccc2)CC1)Nc1ccccc1 as listed: 15.8 µM [falling, single point]	–
